The numbers were not newly measured in patent US20110071027A1, “HIGH […] AQUEOUS […] CONCENTRATES AND METHODS” (priority 2009, published 2011), which cites them from elsewhere.

For the data set the following is noted: at 25° C.; acid form.

Turning to `O=C(O)CNCP(=O)(O)O` [glyphosate acid, N-(phosphonomethyl)glycine], the solubility in water entry was “about 12 g/L”.
